Assay results as given in paper PMC6265731.
These are yes or no findings as the source states them, for the method shown. Binding seen in cells or lysates may run through a third protein. Some results given as binding are weak or reduced against the parent protein; the word gives no strength. For some of these results: Where a sequence is shown, tags or fusion partners need not be part of it.

T1: PLRV P17 movement protein with a split-YFP half fused to its C-terminus (Potato leafroll virus) (UniProt P17524)
T1 sequence: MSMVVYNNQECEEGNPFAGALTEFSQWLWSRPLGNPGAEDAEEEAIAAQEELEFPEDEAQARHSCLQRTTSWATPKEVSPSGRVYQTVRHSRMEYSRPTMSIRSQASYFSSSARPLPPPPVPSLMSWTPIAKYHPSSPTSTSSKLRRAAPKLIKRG

B1: PLRV P3a with a split-YFP half fused to its C-terminus (peptide, UniProt P0DTK2 1-45)
chain: MDYKFLAGFALGFSSAIPFSVAGLYFVYLKISSHVRSIVNEYGRG
B2: PLRV P17 movement protein with a split-YFP half fused to its C-terminus (protein, UniProt P17524 1-156)
chain: MSMVVYNNQECEEGNPFAGALTEFSQWLWSRPLGNPGAEDAEEEAIAAQEELEFPEDEAQARHSCLQRTTSWATPKEVSPSGRVYQTVRHSRMEYSRPTMSIRSQASYFSSSARPLPPPPVPSLMSWTPIAKYHPSSPTSTSSKLRRAAPKLIKRG

How the values were obtained:
Assay in all cases: split reporter
[1] = target: PLRV P3a with a split-YFP half fused to its N-terminus (Potato leafroll virus) (UniProt P0DTK2)
[2] = target: PLRV P3a with a split-YFP half fused to its C-terminus (Potato leafroll virus) (UniProt P0DTK2)
[3] = target: T1, PLRV P17 movement protein with a split-YFP half fused to its C-terminus (Potato leafroll virus)

Molecule | binding [1] | binding [2] | binding [3]
PLRV P3a with a split-YFP half fused to its N-terminus (from UniProt P0DTK2 2-45) | binds |  | 
B1 |  | binds | binds
B2 |  |  | binds
